The source of these data is PubChem BioAssay AID493014 (National Center for Advancing Translational Sciences (NCATS), 2011).

“And” between values parts separate entries of the source, which are not always exact repeats. Equal entries are not always repeated. This is one part of the list. Further columns of the screen follow, without active or inactive calls. The list favours compounds with an active or inconclusive main result. The note in brackets gives the kind of curve behind each potency; many fits are weak.

The test can be described thus: qHTS Assay to Find Inhibitors of Chronic Active B-Cell Receptor Signaling. Conditions: ABC-DLBCL IkBa-CBG/CBR reporter, luminescence ratio (green luciferase fused to IkBa over red control in TMD8 lymphoma cells), 4 h. Summed up:
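TMD8 human ABC-DLBCL cells with doxycycline-inducible IκBα–green luciferase fusion and unfused red luciferase, in 0.5% FBS medium; compounds up to 46 uM, 4 h at 37C. Green/red luminescence ratio, filter-overlap corrected, fitted to concentration-response curves.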
(In general: qHTS replaces the single test concentration by a dilution series.)

The mark [1] stands for this setting: measured here: CBR red luminescence, cell number.
The mark [2] stands for this setting: measured here: IkBa-CBG green luminescence.

Regarding `O=C(CNC(=O)c1ccccc1)OCCOc1cccc(Cl)c1`, under setting [1], the AC50 is 23.1 µM [rising, partial curve, poor fit]. Still for that read-out and setting: the value for `O=C(CCN1C(=O)c2ccccc2S1(=O)=O)NCc1ccc(F)cc1` was 25.9 µM [rising, single point]; that for `CCOc1ccc2nc(N3CCC(C(=O)Nc4nnc(CC)s4)CC3)sc2c1` was 29.1 µM [falling, partial curve, poor fit]; that for `Cc1nnc(SCC(=O)N2CCOCC2)c2ccccc12` was 14.1 µM [falling, single point]. With `CCOC(=O)CSc1nnnn1-c1cc(OC)ccc1OC`, under setting [1], the AC50 was 20 µM [rising, partial curve, poor fit].

With `Clc1ccccc1Nc1ncnc2c1nnn2Cc1ccccc1`, the AC50 under setting [1] is 3.98 µM [falling, partial curve, poor fit]. For `COc1cc(NC(=O)c2noc3c2CCC3)c(OC)cc1Cl`, the AC50 under setting [1] was 6.51 µM [falling, single point]. Regarding `Cc1cccc(/N=C/c2c(O)c3ccccc3oc2=O)n1`, the half-maximal activity concentration (AC50) under setting [1] was 1.84 µM [falling, full curve, poor fit]. Turning to `CS(=O)(=O)Nc1cccc(-c2cn3ccccc3n2)c1`, the concentration at half-maximal activity (AC50) under setting [1] is 0.501 µM [rising, full curve, poor fit]. As to `Cc1cc(C)c2c(c1)/C(=N/NC(=O)c1ccc(O)cc1)CCC2`, the AC50 under setting [1] is 3.55 µM [falling, partial curve]. Still for that read-out and setting: the value for `O=[N+]([O-])c1ccc(CCNc2cccc3ccccc23)c([N+](=O)[O-])c1` was 32.6 µM [falling, single point]; that for `Cc1ccc(NC(=O)CSc2nc3ncc(Cl)cc3[nH]2)c(C)c1` was 35.5 µM [falling, single point]; that for `O=C(/C=C/c1ccc(F)cc1)c1cc(Br)ccc1O` was 1.78 µM [rising, full curve, poor fit].

Take `O=C(C(Cc1ccccc1)NS(=O)(=O)c1cccc2cccnc12)N1CCc2ccccc21` (stereo not given): the AC50 under setting [1] is 6.51 µM [rising, single point]. Same read-out and setting: then `CCN(CC)CCCNC(=O)C1CCN(C(=O)c2oc3cc4sc(N(C)C)nc4cc3c2C)CC1`, with 31.6 µM [rising, single point]; and `NC(=O)C1CCN(CC(O)COc2ccc(-c3ccccc3)cc2)CC1` (stereo not given), with 6.31 µM [rising, full curve, poor fit]; and `NNC(=O)c1cc(-c2ccccc2)sc1N`, with 4.47 µM [rising, partial curve, poor fit]. In the case of `Cc1cc2cc(C(=O)N3CCc4c([nH]c5ccccc45)C3c3ccccn3)ccc2o1` (stereo not given), the AC50 under setting [1] is 35.5 µM [falling, single point]. With `O=C(N/N=C/c1ccc2c(c1)OCO2)c1ccc2c(c1)OCO2`, under setting [1], the AC50 was 1.78 µM [falling, partial curve, poor fit].

On to `CCOC(=O)c1cccc(NC(=O)c2ccc(NC(=O)c3ccco3)cc2)c1`, for which, under setting [1], the AC50 was 14.1 µM [falling, single point].

`CN(C)c1ccc(N=Nc2nc3ccccc3n2C)cc1`: the AC50 under setting [1] is 0.282 µM [falling, full curve, poor fit]. In the case of `Cc1ccc(Nc2nc3ccccc3s2)cc1`, under setting [1], the concentration at half-maximal activity (AC50) was 0.291 µM [rising, full curve]. Same read-out and setting: then `COc1ccccc1OCC(=O)Nc1nnc(-c2ccco2)s1`, with 4.47 µM [falling, partial curve, poor fit]; and `CCOc1ccc(C(=O)Nc2ccc(Cl)cn2)cc1Cl`, with 2.82 µM [rising, single point]. On to `O=C1C(Cc2ccc(O)cc2)NC(=S)N1Cc1ccccc1` (stereo not given), for which the AC50 under setting [1] was 35.5 µM [falling, single point]. For the compound `O=C(OCc1c(-c2ccccc2)ncc2ccccc12)c1ccc(Br)cc1`, under setting [1], the AC50 was 6.51 µM [falling, full curve]. As to `COc1ccc(C(=O)Nc2cccc(-c3nc4ncccc4o3)c2C)cc1`, the half-maximal activity concentration (AC50) under setting [2] is 0.411 µM [rising, partial curve, poor fit]. For `COc1cccc(-c2ccc(NC(=O)C3CCCN(Cc4cnn(C)c4)C3)cc2)c1` (stereo not given), the AC50 under setting [1] was 35.5 µM [falling, single point]. With `OCC1CCCCN1C(=S)Nc1cccc(Cl)c1` (stereo not given), the AC50 under setting [1] was 12.6 µM [rising, partial curve].

Take `Cc1ccc(NC(=O)C(C)N=C2NS(=O)(=O)c3ccccc32)cc1F` (stereo not given): the AC50 under setting [1] was 3.98 µM [rising, full curve, poor fit]. Turning to `O=C(Cc1ccccc1F)Nc1nc(-c2cccs2)cs1`, the AC50 under setting [1] is 11.2 µM [falling, partial curve]. `Cn1c(=O)c2cc3c(nc2n(C)c1=O)CC(c1ccccc1)CC3=O` (stereo not given): the AC50 under setting [1] is 6.31 µM [rising, single point].

As to `COCc1cc(S(=O)c2ccc(Cl)cc2)nc(C)n1` (stereo not given), the AC50 under setting [1] is 11.2 µM [falling, partial curve]. On the same count and under the same terms, then `CCOc1ccc(N2C(=O)CC(Sc3nnnn3-c3ccccc3)C2=O)cc1` (stereo not given), with 17.8 µM [falling, partial curve, poor fit]; and `O=C(O)c1ccc(N/N=C/C=C/c2ccccc2[N+](=O)[O-])cc1`, with 0.0251 µM [falling, full curve, poor fit]. Still for that read-out and setting: then `CCN1CCN(c2ccc(S(=O)(=O)N3CCOCC3)cc2NC(=O)c2ccc(C)cc2C)CC1`, with 0.146 µM [rising, full curve, poor fit]; and `COc1ccc(C(=O)Nc2cc(C)on2)cc1S(=O)(=O)N1CC(c2ccccc2)CC1=O` (stereo not given), with 0.891 µM [falling, full curve, poor fit].

On to `O=C(O)c1ccc(NCc2nc3ccccc3n2Cc2ccccc2)cc1`, for which, under setting [1], the AC50 was 4.47 µM [falling, partial curve]. For the compound `COCCCN(C(=O)CCOc1ccc(C(C)(C)C)cc1)c1c(N)n(Cc2ccccc2)c(=O)[nH]c1=O`, under setting [1], the AC50 was 29.1 µM [falling, single point]. As to `Cc1cc(C)cc(-c2nc(-c3ccncc3)no2)c1`, the AC50 under setting [1] is 23.1 µM [rising, partial curve, poor fit].

On to `COc1ccc2[nH]c3c(c2c1)CCN1C(=O)N([C@@H](C)C(=O)NCc2ccccc2OC)C(=O)[C@]31C`, for which the AC50 under setting [1] was 15.8 µM [falling, single point]. Regarding `COCCN(C(=O)CSc1n[nH]c(-c2ccccc2)n1)c1c(N)n(Cc2ccccc2)c(=O)[nH]c1=O`, under setting [1], the AC50 was 0.291 µM [rising, full curve, poor fit]. Turning to `C=CCNC(=O)c1onc(CSc2ccc(F)cc2)c1C(=O)O`, the AC50 under setting [1] is 15.8 µM [falling, partial curve]. Take `CCCCN(C(=O)CSc1nnc(Nc2ccccc2)s1)c1c(N)n(CCC)c(=O)[nH]c1=O`: under setting [1], the AC50 was 20 µM [rising, single point]. As for `Nc1c(-c2cccc(Cl)c2)cnn1-c1cccc([N+](=O)[O-])c1`, the AC50 under setting [1] is 0.794 µM [rising, full curve, poor fit]. The same measure, in the same setting: the value for `O=C(CN1CC(=O)Oc2ccccc21)OCC(=O)c1ccc(F)cc1` was 10 µM [falling, partial curve, poor fit]; that for `CC(=O)Nc1ccccc1OCC(=O)NC(C)c1ccccc1` (stereo not given) was 1.64 µM [rising, full curve, poor fit]. With `Cc1nnc(SCC(=O)NCc2ccccc2)n1-c1ccccc1`, under setting [1], the half-maximal activity concentration (AC50) is 3.26 µM [falling, single point]. `CCCCN(C(=O)Nc1ccc(Cl)cc1)C1CCN(C(C)=O)CC1`: the AC50 under setting [1] is 5.8 µM [rising, full curve, poor fit] and 25.1 µM [rising, single point].

`C=CCc1ccc(OCC(O)COc2ccc(CC=C)cc2OC)c(OC)c1`: under setting [1], the AC50 was 23.1 µM [falling, single point]. Regarding `CCNc1nc(SCC(=O)OC)nc(N(C)C)n1`, the AC50 under setting [1] was 35.5 µM [falling, single point]. Turning to `C=C(C)CNC(=S)NNC(=O)CCn1c2ccccc2c2ccccc21`, the AC50 under setting [2] is 20.6 µM [falling, partial curve, poor fit]. As to `Cc1ccc(NC(=S)NCCC(c2ccccc2)c2ccccc2)c(C)c1`, the AC50 under setting [1] was 29.1 µM [falling, single point].

Take `Cc1ccc(OCC(=O)c2c(O)c3ccccc3oc2=O)cc1C`: under setting [1], the AC50 is 0.447 µM [falling, full curve, poor fit]. For the compound `COc1ccc(C(=O)O/N=C(/C)c2cccs2)cc1`, the AC50 under setting [1] was 10.3 µM [rising, partial curve, poor fit]. For the compound `CC(C)Nc1nc2cccnc2s1`, under setting [1], the AC50 was 17.8 µM [rising, partial curve, poor fit].

For the compound `COc1ccc(NC(=O)CCNS(=O)(=O)c2cc(Br)ccc2Br)cc1S(N)(=O)=O`, the AC50 under setting [1] was 7.08 µM [rising, partial curve, poor fit].

As to `Cc1nc(COC(=O)c2cc(O)c3ccccc3c2O)cs1`, the AC50 under setting [1] is 6.31 µM [falling, full curve].

Consider `O=[N+]([O-])c1ccc(/C=N/Nc2ccc3ccccc3c2)o1`, for which the AC50 under setting [1] was 1.84 µM [rising, partial curve, poor fit]. Regarding `FC(F)(F)c1nc(Oc2ccccc2)c2ccccc2n1`, the AC50 under setting [1] was 29.1 µM [rising, single point]. Turning to `COCCNC(=O)c1cc2c(-c3ccc(Cl)cc3)nn(C)c2s1`, under setting [1], the AC50 was 29.1 µM [falling, single point].

Consider `COC(=O)c1sc(-c2ccccc2)cc1NC(=O)c1ccc(OC)cc1`, for which, under setting [1], the AC50 is 0.259 µM [rising, full curve, poor fit]. The same measure, in the same setting: the value for `CCOC(=O)Nc1cccc(NC(=O)c2cc(OC)cc(OC)c2)c1` was 2.31 µM [falling, full curve]; that for `CNc1ncnc2ccc(-c3c(C)noc3C)cc12` was 18.4 µM [rising, partial curve]. Turning to `CC(=O)N1CC=C2C(C#N)=C(N)C(C#N)(C#N)C(CCc3ccccc3)C2C1` (stereo not given), under setting [1], the AC50 is 6.51 µM [falling, partial curve, poor fit].

Broadly, the AC50 is the midpoint of the concentration-response curve, whichever way the signal moves.
